PubChem BioAssay AID504774, Drosophila RNAi Screening Center, 2011
Purpose: 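Genes required for cells to withstand methyl methanesulphonate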 (primary screen). Cell system: Drosophila Kc167 cells. Reagents: long dsRNA against Drosophila genes, about 0.25 µg dsRNA per well. Timing: about 6 days: 3 days knock-down, then 3 days with or without MMS. Challenge: methyl methanesulphonate 0.004% (w/v) for 3 days after knock-down. Measured: 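ATP-dependent luminescence as a measure of live cells in MMS-exposed wells, quantile normalised within each plate, with replicate values also given as a mean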. Reading the numbers: mean viability with MMS and viability with MMS: higher = more surviving cells after MMS.
In all, the deposit lists about 23,000 reagents; this is a random part of those that have a named target and a result. 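Values are quantile-normalised luminescence on an arbitrary scale; higher means more cells surviving MMS.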 Reagents against one gene are numbered here. Names joined by + are all predicted targets of the reagent.

| gene knocked down | reagent | mean viability with MMS | viability with MMS, replicate 1 | viability with MMS, replicate 2 |
| --- | --- | --- | --- | --- |
| Tb | 1 | 3.62e6 | 4.06e6 | 4.13e6 |
| CG11581 | 1 | 3.59e6 | 4.08e6 | 4.06e6 |
| CG9922 | 1 | 3.64e6 | 4.14e6 | 4.14e6 |
| Epg5 | 1 | 3.83e6 | 4.71e6 | 3.96e6 |
| CG31465 | 1 | 3.47e6 | 3.95e6 | 3.91e6 |
| N | 1 | 3.57e6 | 4.08e6 | 4.03e6 |
| CG15638 | 1 | 3.77e6 | 4.22e6 | 4.18e6 |
| Ts | 1 | 3.66e6 | 4.02e6 | 4.23e6 |
| Ts | 2 | 3.39e6 | 3.89e6 | 3.89e6 |
| Ilp1 | 1 | 3.68e6 | 4.17e6 | 4.12e6 |
| CG14829 | 1 | 3.78e6 | 4.52e6 | 4.03e6 |
| CG1418 | 1 | 3.45e6 | 3.95e6 | 3.90e6 |
| Usp15-31 | 1 | 3.24e6 | 2.68e6 | 4.02e6 |
| Usp15-31 | 2 | 2.92e6 | 3.52e6 | 3.44e6 |
| CG13386 | 1 | 3.51e6 | 3.91e6 | 4.05e6 |
| COX7A | 1 | 3.48e6 | 3.78e6 | 4.14e6 |
| Scp1 | 1 | 2.23e6 | 3.90e6 | 3.68e6 |
| Scp1 | 2 | 2.25e6 | 3.89e6 | 3.94e6 |
| Scp1 | 3 | 3.52e6 | 3.94e6 | 4.05e6 |
| Ir20a | 1 | 3.51e6 | 4.02e6 | 3.95e6 |
| CG3552 | 1 | 3.60e6 | 4.05e6 | 4.07e6 |
| CG30127 (retired record) | 1 | 3.35e6 | 3.87e6 | 3.78e6 |
| CG30127 (retired record) | 2 | 3.55e6 | 3.98e6 | 4.06e6 |
| CG14007 | 1 | 3.47e6 | 3.95e6 | 3.93e6 |
| mRpL28 | 1 | 3.54e6 | 3.97e6 | 4.05e6 |
| inaC | 1 | 3.50e6 | 3.97e6 | 3.96e6 |
| Mtap | 1 | 3.71e6 | 4.12e6 | 4.28e6 |
| Cog2 | 1 | 3.76e6 | 4.47e6 | 4.05e6 |
| yl | 1 | 3.68e6 | 4.16e6 | 4.12e6 |
| Qsox2 | 1 | 3.42e6 | 3.96e6 | 3.80e6 |
| CG10638 | 1 | 3.21e6 | 3.66e6 | 3.53e6 |
| CG42544 | 1 | 3.47e6 | 3.93e6 | 3.95e6 |
| GatC + PolG2 | 1 | 3.52e6 | 4.09e6 | 3.89e6 |
| Sp7 | 1 | 3.66e6 | 4.12e6 | 4.17e6 |
| Aplip1 | 1 | 3.61e6 | 4.09e6 | 4.10e6 |
| Aplip1 | 2 | 3.57e6 | 4.05e6 | 4.02e6 |
| Aplip1 | 3 | 3.66e6 | 4.12e6 | 4.15e6 |
| tio | 1 | 3.50e6 | 3.97e6 | 3.96e6 |
| Ank2 | 1 | 3.43e6 | 3.91e6 | 3.87e6 |
| Ank2 | 2 | 3.69e6 | 4.14e6 | 4.23e6 |
| Ank2 | 3 | 3.52e6 | 3.94e6 | 4.06e6 |
| Ank2 | 4 | 3.62e6 | 4.16e6 | 4.07e6 |
| Ank2 | 5 | 3.59e6 | 4.05e6 | 4.05e6 |
| Cortactin | 1 | 3.60e6 | 4.04e6 | 4.11e6 |

5 entries from above, sorted by “mean viability with MMS”, lowest first:
| gene knocked down | reagent | mean viability with MMS | viability with MMS, replicate 1 | viability with MMS, replicate 2 |
| --- | --- | --- | --- | --- |
| CG30127 (retired record) | 1 | 3.35e6 | 3.87e6 | 3.78e6 |
| CG14007 | 1 | 3.47e6 | 3.95e6 | 3.93e6 |
| mRpL28 | 1 | 3.54e6 | 3.97e6 | 4.05e6 |
| CG30127 (retired record) | 2 | 3.55e6 | 3.98e6 | 4.06e6 |
| CG3552 | 1 | 3.60e6 | 4.05e6 | 4.07e6 |

The listing continues.
| gene knocked down | reagent | mean viability with MMS | viability with MMS, replicate 1 | viability with MMS, replicate 2 |
| --- | --- | --- | --- | --- |
| Vps13 | 1 | 3.38e6 | 3.82e6 | 3.84e6 |
| Irc | 1 | 3.54e6 | 4.14e6 | 3.90e6 |
| CG2871 | 1 | 3.64e6 | 4.15e6 | 4.10e6 |
| CG2871 | 2 | 3.36e6 | 3.74e6 | 3.98e6 |
| Bet3 | 1 | 3.71e6 | 4.28e6 | 4.06e6 |
| APC4 | 1 | 3.19e6 | 3.55e6 | 3.82e6 |
| Rich | 1 | 3.60e6 | 4.13e6 | 4.04e6 |
| FMRFa | 1 | 3.53e6 | 4.08e6 | 3.93e6 |
| Bdbt | 1 | 3.32e6 | 3.77e6 | 3.83e6 |
| Dpit47 | 1 | 3.32e6 | 3.76e6 | 3.67e6 |
| CR18275 + CG13373 | 1 | 3.56e6 | 3.82e6 | 4.27e6 |
| nAChRalpha4 | 1 | 3.48e6 | 4.05e6 | 3.86e6 |
| CG34451 | 1 | 3.55e6 | 4.04e6 | 4.01e6 |
| CG34451 | 2 | 3.67e6 | 4.19e6 | 4.11e6 |
| BNIP3 | 1 | 3.72e6 | 4.18e6 | 4.16e6 |
| CG17475 | 1 | 3.51e6 | 4.07e6 | 3.88e6 |
| alpha-Spec | 1 | 3.55e6 | 4.01e6 | 4.04e6 |
| CG42703 | 1 | 3.40e6 | 3.83e6 | 3.92e6 |
| CG31139 | 1 | 3.65e6 | 4.14e6 | 4.11e6 |
| Incenp | 1 | 3.77e6 | 4.22e6 | 4.48e6 |
| Incenp | 2 | 3.51e6 | 4.05e6 | 3.92e6 |
| Mtr3 | 1 | 3.48e6 | 3.91e6 | 3.95e6 |
| CG10089 | 1 | 3.37e6 | 3.73e6 | 3.86e6 |
| CG10089 | 2 | 3.42e6 | 3.80e6 | 3.93e6 |
